# Measured values: patent US20130310256A1, “HERBICIDAL COMPOSITIONS COMPRISING 4-AMINO-3-CHLORO-5-FLUORO-6-(4-CHLORO-2-FLUORO-3-METHOXYPHENYL) PYRIDINE-2-CARBOXYLIC ACID OR A DERIVATIVE THEREOF AND VLCFA AND LIPID SYNTHESIS INHIBITING HERBICIDES” (DOW AGROSCIENCES LLC, priority 2008, published 2013)
# At least one read-out could not be matched to a standard name with certainty.
# System: ECHOR
# Experiment: Example II: in-water applied weed control, transplanted paddy rice, greenhouse
# Type: in vivo, Echinochloa oryzoides (Ard.) Fritsch (early watergrass)
# Conditions: 21 DAA
# Description: Weed seeds or nutlets of the desired test plant species were planted in puddled soil (mud) prepared by mixing a shredded, non-sterilized mineral soil (50.5 percent silt, 25.5 percent clay, and 24 percent sand, with a pH of about 7.6 and an organic matter content of about 2.9 percent) and water at a 1:1 volumetric ratio. The prepared mud was dispensed in 365 mL aliquots into 16-ounce (oz.) non-perforated plastic pots with a surface area of 86.59 square centimeters (cm^2) leaving a headspace of 3 centimeters (cm) in each pot. Mud was allowed to dry overnight prior to planting or transplanting. Rice seeds were planted in Sun Gro MetroMix® 306 planting mixture, which typically has a pH of 6.0 to 6.8 and an organic matter content of about 30 percent, in plastic plug trays. […]
# Treatment requirements for each compound or herbicidal component were calculated based upon the rates being tested, the concentration of active ingredient or acid equivalent in the formulation, an application volume of 2 mL per component per pot, and an application area of 86.59 cm^2 per pot.
# For formulated compounds, a measured amount was placed in an individual 100 or 200 mL glass vial and was dissolved in a volume of 1.25% (v/v) Agri-Dex® crop oil concentrate to obtain application solutions. […]
SMILES,Visual Weed Control ECHOR Obs (35 gae/ha),Visual Weed Control ECHOR Obs (8.75 gae/ha)
"COc1c(Cl)ccc(-c2nc(C(=O)O)c(Cl)c(N)c2F)c1F [Compound A Acid, 4-amino-3-chloro-6-(4-chloro-2-fluoro-3-methoxyphenyl)-5-fluoropyridine-2-carboxylic acid]",15%,–
"COc1c(Cl)ccc(-c2nc(C(=O)OCc3ccccc3)c(Cl)c(N)c2F)c1F [Compound A Benzyl Ester, benzyl ester of 4-amino-3-chloro-5-fluoro-6-(4-chloro-2-fluoro-3-methoxy-phenyl)pyridine-2-carboxylic acid]",–,25%
